From article PMC4994047
Results are given in words; binding and its absence hold for the method and conditions named.

Target: MamM CTD M250P (Magnetospirillum gryphiswaldense MSR-1) (UniProt V6F235)
Assay: SEC-MALS; MamM CTD M250P at 4 mg mL^-1, 200 uL injected on Superdex75 10/300 GL in Buffer F (10 mM Tris-HCl pH 8, 50 mM NaCl, 5 mM beta-mercaptoethanol); both purified

binding: no binding (tested: 4 mg mL^-1)
B1: MamM CTD M250P (domain or fragment, UniProt V6F235 215-318)
chain: EAVQNRIVEAAERVPGVRGVIHLRARYVGQDIWADPIIGVDPENTVEQAHEICEAVQAAVCGKIRRIESLHVSAEAREIGDTTKPSFSDQPLSFDEVMLSKVDN
